The list shows only some results of the screen, not a fair sample: it gathers tests that were run many times, whatever their T/C, doses with no T/C, and many T/C values between a quarter and a half above the control. Further doses and runs are listed elsewhere. T/C is the treated group as % of the vehicle group. Some doses have a count of surviving animals in place of a T/C: the source files T/C as zero there, which appears to mark a toxic dose or a test without result, not a measured value. Some survivor counts are full or nearly so, which does not show that the dose was tolerated: the source hardly ever lists a survival T/C far under the control, and the zero likely stands for such cases as well. Counts of survivors are from the toxicity check (mostly the fifth day) where no day follows; animals may have died later. Schedule codes are those of the source, read here as Q, the interval in days (D) or hours (H), X, the number of doses. Some schedule codes hold Z or #, which are not explained here. For survival time, this PubChem deposit counts one and a half times the control or more as active, and values a quarter to a half above the control carry no call in these data; other NCI protocols may use other cut-offs. Some entries hold several experiments; their values stand side by side, smallest first. Some T/C values are followed by the survivors on the day toxicity was checked, most often the fifth; where none is given, no animal had died by that day.
Tested on: CD2F1 mice, L1210 leukemia sc, survival T/C
Assay: NCI In Vivo Anticancer Drug Screen. Data for tumor model L1210 Leukemia (subcutaneous) in CD2F1 (CDF1) mice
Settings: T/C endpoint: median survival time, higher T/C = longer survival
Summary of the method: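 Read-out: survival or tumor size. Value = treated (T) / vehicle control (C). Transplantable tumor in mice.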

[1] = dose: 180.0 mg/kg/injection, schedule: Q01DX Z (sc), vehicle: methylcellulose (MC)
[2] = dose: 3.12 mg/kg/injection, schedule: Q01DX009 (ip), vehicle: saline
[3] = dose: 100.0 mg/kg/injection, schedule: Q01DX009 (ip), vehicle: saline

Structure (SMILES): CN(Cc1cnc2nc(N)nc(N)c2n1)c1c(Cl)cc(C(=O)NC(CCC(=O)O)C(=O)O)cc1Cl (stereo not given)
- T/C (dose: 12.5 mg/kg/injection, schedule: Q01DX009 (ip), vehicle: saline with Tween-80): 127 % of control
- T/C (dose: 16.2 mg/kg/injection, schedule: Q01DX Z (oral), vehicle: other): 145 % of control
- T/C (dose: 16.2 mg/kg/injection, schedule: Q#A X Z (oral), vehicle: other): 136 % of control
- T/C (dose: 25.0 mg/kg/injection, schedule: Q01DX009 (ip), vehicle: saline with Tween-80): 131 % of control
- T/C (dose: 27.0 mg/kg/injection, schedule: Q01DX Z (oral), vehicle: other): 131 % of control
- T/C (dose: 27.0 mg/kg/injection, schedule: Q#A X Z (oral), vehicle: other): 140 % of control
- T/C (dose: 45.0 mg/kg/injection, schedule: Q01DX Z (oral), vehicle: other): 127 % of control
- survivor count (dose: 45.0 mg/kg/injection, schedule: Q01DX Z (sc), vehicle: other): 0 of 10
- T/C (dose: 45.0 mg/kg/injection, schedule: Q#A X Z (oral), vehicle: other): 127 % of control
- T/C (dose: 45.0 mg/kg/injection, schedule: Q#A X Z (sc), vehicle: other): 145 % of control
- T/C (dose: 50.0 mg/kg/injection, schedule: Q01DX009 (ip), vehicle: saline with Tween-80): 144 % of control
- T/C (dose: 62.5 mg/kg/injection, schedule: Q#A X Z (oral), vehicle: other): 145 % of control
- survivor count (dose: 100.0 mg/kg/injection, schedule: Q01DX009 (ip), vehicle: saline with Tween-80): 5 of 6
- T/C (dose: 104.0 mg/kg/injection, schedule: Q#A X Z (oral), vehicle: other): 130 % of control
- T/C (dose: 104.0 mg/kg/injection, schedule: Q#A X Z (sc), vehicle: other): 130 % of control
- T/C (dose: 125.0 mg/kg/injection, schedule: Q01DX Z (oral), vehicle: other): 127 % of control
- T/C (dose: 125.0 mg/kg/injection, schedule: Q01DX Z (sc), vehicle: other): 140 and 145 % of control
- survivor count (dose: 200.0 mg/kg/injection, schedule: Q01DX009 (ip), vehicle: saline with Tween-80): 5 of 6
- T/C (dose: 208.0 mg/kg/injection, schedule: Q01DX Z (sc), vehicle: other): 135 % of control [9 of 10 alive]
- T/C (dose: 360.0 mg/kg/injection, schedule: Q01DX Z (sc), vehicle: other): 144 % of control
- T/C (dose: 600.0 mg/kg/injection, schedule: Q01DX Z (oral), vehicle: other): 144 % of control
- T/C (dose: 1000.0 mg/kg/injection, schedule: Q01DX Z (oral), vehicle: other): 144 % of control [9 of 10 alive]
- T/C (dose: 1602.0 mg/kg/injection, schedule: Q03DX Z (oral), vehicle: other): 136 % of control

Structure (SMILES): Nc1nc2c(ncn2C2CC(O)C(CO)O2)c(=O)[nH]1 (stereo not given)
- survivor count (dose: 63.0 mg/kg/injection, schedule: Q01DX Z (sc), vehicle: water): 4 of 8
- survivor count (dose: 125.0 mg/kg/injection, schedule: Q01DX Z (sc), vehicle: water): 2 of 8
- survivor count (dose: 250.0 mg/kg/injection, schedule: Q01DX Z (sc), vehicle: water): 2 of 8
- survivor count (dose: 500.0 mg/kg/injection, schedule: Q01DX Z (sc), vehicle: water): 3 of 8

Structure (SMILES): Nc1nc2n[nH]nc2c(=O)[nH]1
- T/C (dose: 25.0 mg/kg/injection, schedule: Q01DX009 (sc), vehicle: saline): 125 % of control

Structure (SMILES): CS(=O)(=O)OCCCl
- survivor count (dose: 14.0 mg/kg/injection, schedule: Q01DX Z (sc), vehicle: methylcellulose (MC)): 0 of 10
- survivor count (dose: 23.0 mg/kg/injection, schedule: Q01DX Z (sc), vehicle: methylcellulose (MC)): 1 of 10
- survivor count (dose: 39.0 mg/kg/injection, schedule: Q01DX Z (sc), vehicle: methylcellulose (MC)): 2 of 10
- survivor count (dose: 65.0 mg/kg/injection, schedule: Q01DX Z (sc), vehicle: methylcellulose (MC)): 0 of 10
- survivor count (dose: 108.0 mg/kg/injection, schedule: Q01DX Z (sc), vehicle: methylcellulose (MC)): 0 of 10
- survivor count [1]: 0 of 10
- survivor count (dose: 300.0 mg/kg/injection, schedule: Q01DX Z (sc), vehicle: methylcellulose (MC)): 0 of 10
- survivor count (dose: 500.0 mg/kg/injection, schedule: Q01DX Z (sc), vehicle: methylcellulose (MC)): 0 of 10

Structure (SMILES): O=C(O)c1cc(=O)[nH]c(=O)[nH]1
- survivor count (dose: 108.0 mg/kg/injection, schedule: Q01DX Z (sc), vehicle: saline): 6 of 10
- survivor count (dose: 180.0 mg/kg/injection, schedule: Q01DX Z (sc), vehicle: saline): 5 of 10
- survivor count (dose: 500.0 mg/kg/injection, schedule: Q01DX Z (sc), vehicle: saline): 5 of 10
- survivor count (dose: 833.0 mg/kg/injection, schedule: Q01DX Z (sc), vehicle: saline): 5 of 10

Structure (SMILES): Cc1c(-c2ccc(-c3ccccc3F)cc2)nc2ccc(F)cc2c1C(=O)O
- T/C [2]: 127 % of control
- T/C (dose: 6.25 mg/kg/injection, schedule: Q01DX009 (ip), vehicle: saline): 146 % of control
- survivor count [3]: 10 of 10

Structure (SMILES): NCCCN=c1ccc2c3c1c(O)c1c(O)ccc(=O)c1c3[nH]n2CCNCCO
- T/C (dose: 1.3 mg/kg/injection, schedule: Q03HX024 (ip), vehicle: saline): 139 % of control
- T/C (dose: 3.46 mg/kg/injection, schedule: Q01DX009 (ip), vehicle: saline): 132 % of control
- T/C (dose: 3.89 mg/kg/injection, schedule: Q03HX008 (ip), vehicle: saline): 131 % of control
- T/C (dose: 5.7 mg/kg/injection, schedule: Q01DX009 (ip), vehicle: saline): 149 % of control
- T/C (dose: 6.0 mg/kg/injection, schedule: Q03HX024 (ip), vehicle: saline): 126 % of control
- T/C (dose: 6.2 mg/kg/injection, schedule: Q01DX005 (ip), vehicle: saline): 131 % of control
- T/C (dose: 9.6 mg/kg/injection, schedule: Q01DX009 (ip), vehicle: water): 142 % of control
- survivor count (dose: 10.0 mg/kg/injection, schedule: Q03HX024 (ip), vehicle: saline): 7 of 10
- T/C (dose: 10.4 mg/kg/injection, schedule: Q04DX003 (ip), vehicle: saline): 139 % of control
- survivor count (dose: 16.7 mg/kg/injection, schedule: Q03HX024 (ip), vehicle: saline): 5 of 10
- survivor count (dose: 18.0 mg/kg/injection, schedule: Q03HX008 (ip), vehicle: saline): 6 of 10
- survivor count (dose: 30.0 mg/kg/injection, schedule: Q03HX008 (ip), vehicle: saline): 1 of 10
- T/C (dose: 31.1 mg/kg/injection, schedule: Q01DX001 (ip), vehicle: saline): 139 % of control
- survivor count (dose: 44.5 mg/kg/injection, schedule: Q01DX009 (ip), vehicle: saline): 9 of 10
- survivor count (dose: 48.0 mg/kg/injection, schedule: Q01DX005 (ip), vehicle: saline): 10 of 10
- survivor count (dose: 133.4 mg/kg/injection, schedule: Q04DX003 (ip), vehicle: saline): 3 of 10
- survivor count (dose: 144.0 mg/kg/injection, schedule: Q01DX001 (ip), vehicle: saline): 2 of 10

Structure (SMILES): CC(C)CCNc1ncnc2c1cnn2C
- survivor count (dose: 300.0 mg/kg/injection, schedule: Q01DX Z (sc), vehicle: water): 1 of 10

Structure (SMILES): NCCCNCCCCNC(=O)C(O)NC(=O)CC(O)CCCCN=C(N)N (stereo not given)
- T/C [2]: 145 % of control
- survivor count [3]: 4 of 8

Structure (SMILES): c1ccc(CNc2ncnc3[nH]ncc23)cc1
- survivor count [1]: 0 of 10

Structure (SMILES): NC(=O)c1ncn2c(=O)n(CCCl)nnc12
- T/C (dose: 3.12 mg/kg/injection, schedule: Q01DX009 (ip), vehicle: suspension in saline): 147 % of control
